Some entries repeat one wording, which the source may state once for all of them.
Experiment: Model native chemical ligation reaction testing thiol catalysts
Conditions: for effect on the rate of NCL: 10 mM thiol catalyst, 6M GdmCl, 200 mM phosphate, 20 mM TCEP, pH 7.0, versus control; for ligation rate at higher thiol concentrations: concentrations well beyond the saturation limit of thiophenol in water

SMILES | effect on the rate of NCL | ligation rate at higher thiol concentrations
O=[N+]([O-])c1ccc(S)cc1 [4-nitrothiophenol] | either slowed the reaction rate or were no faster than the control | 
O=C(O)Cc1ccc(S)cc1 [4-mercaptophenylacetic acid] |  | dramatically increased ligation rates
Sc1ccccn1 [2-mercaptopyridine] | either slowed the reaction rate or were no faster than the control | 
Oc1cccc(S)c1 [3-mercaptophenol] |  | dramatically increased ligation rates
Sc1ncccn1 [2-mercaptopyrimidine] | either slowed the reaction rate or were no faster than the control | 
